Measurements published in PubChem BioAssay AID2685 (National Center for Advancing Translational Sciences (NCATS), 2010).
The other results are listed elsewhere or left out. These are further read-outs of the screen, such as a control signal, another cell line or another target. No call is given for them. Compounds called inactive in the main read-out are mostly missing here. Words in brackets tell the shape of the fitted curve; partial curves, single points and poor fits give uncertain potencies.

Assay: qHTS Assay for Lipid Storage Modulators in Drosophila S3 Cells;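 for cell number change: cells counted by Cell Tracker Red CMTPX staining in the red channel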
Conditions: BODIPY lipid droplet fluorescence, 18-24 h; for cell number change: measured here: cell count max response, cells fed with added oleic acid
Outline: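 Drosophila S3 cells loaded with oleic acid (400 uM, as added) and compounds at several concentrations; lipid droplets imaged by 488-nm laser-scanning cytometry, 500–530 nm intensity and object ratio to cell channel. Percent activity normalized to 20 uM Triacsin C.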

[1] = measured here: lipid fluorescence (Fed channel) AC50, cells fed with added oleic acid
[2] = measured here: cell number channel AC50, cells fed with added oleic acid

SMILES | cell number change [%] | AC50 [1] | AC50 [2]
CC(C)OCCCNC(=O)C1CCC(=O)N1C1CCCC1 (stereo unspecified) | 0.572 | – | –
CC(C)c1ccc(NC(=O)CSc2nnc(-c3ccccn3)n2C)cc1 | -15.5 | 2.91 µM [falling, full curve] | –
CSc1ccc(S(=O)(=O)NCc2ccc(Cl)cc2Cl)cc1 | -48.8 | 20.6 µM [falling, single point] | 18.4 µM [falling, single point]
CCOC(=O)CN(C(=O)CNC(=O)c1ccco1)C(C(=O)NC1CCCCC1)c1cccnc1 (stereo unspecified) | -33.3 | – | 0.13 µM [falling, full curve, poor fit]
CCCC1(CCC)NC(=O)N(CC(=O)c2cc(C)n(-c3ccc4c(c3)OCO4)c2C)C1=O | 1.62 | 0.116 µM [rising, full curve, poor fit] | –
CCS(=O)(=O)Nc1ccc(C(=O)CC2(O)C(=O)Nc3ccccc32)cc1 (stereo unspecified) | -174 | 23.1 µM [falling, partial curve] | 29.1 µM [falling, partial curve]
O=C(c1cc2n(n1)C(C(F)(F)F)CC(c1ccc(F)cc1)N2)N1CCCC1 (stereo unspecified) | 13.5 | – | –
Cc1cccc(C(=O)NCCNC(=O)c2ccco2)c1 | 12.4 | – | –
CCOCCn1c(SCCc2ccccc2)nc2c1c(=O)[nH]c(=O)n2C | 45.6 | – | –
O=C(COC(=O)c1ccc(Cl)c(S(=O)(=O)N2CCOCC2)c1)Nc1ccc2[nH]c(=O)[nH]c2c1 | 5.16 | 29.1 µM [rising, single point] | –
Cc1cc(/C(N)=N/OC(=O)c2ccc(Cl)cc2)no1 | -5 | – | –
O=C(Nc1cccc(C(F)(F)F)c1)Nn1cnnc1 | 1.98 | – | –
COc1ccc(NC(=O)/C(C#N)=C/c2ccc(OCc3ccccc3F)cc2)cc1 | 0.856 | 0.116 µM [falling, full curve] | –
COc1ccc(-c2ccc(-c3nc4c(c(=O)[nH]c(=O)n4Cc4ccccc4)n3C)o2)c([N+](=O)[O-])c1 | 7.65 | 6.51 µM [rising, single point] | –
COc1ccc(S(=O)(=O)N2CCCOC2CNC(=O)C(=O)NCc2ccccc2F)cc1C (stereo unspecified) | 21.8 | 32.6 µM [rising, single point] | –
Cc1cccc(N2CCN(S(=O)(=O)c3ccc4c(c3)C(C)(C)C(=O)N4C)CC2C)c1 (stereo unspecified) | -12.2 | 29.1 µM [falling, single point] | –
COc1ccc(CCN(Cc2cc3cc4c(cc3[nH]c2=O)OCO4)C(C)=O)cc1OC | -10.4 | 0.58 µM [rising, single point] | –
CCCn1c(SCC(=O)NCc2ccccc2)n[nH]c1=O | -34.9 | 0.092 µM [falling, full curve] | 0.0731 µM [falling, full curve]
Cc1coc2cc3oc(=O)c(CCC(=O)N4CCC(C(=O)O)(c5ccccc5)CC4)c(C)c3cc12 | 24.6 | – | –
CCCS(=O)(=O)C(=C(Nc1ccc(OC)cc1)Nc1ccc(OC)cc1)S(=O)(=O)CCC | -46.2 | 29.1 µM [falling, single point] | 4.11 µM [falling, full curve, poor fit]

SMILES | cell number change [%] | AC50 [1] | AC50 [2]
C=CCOc1ccc(/C=C2\SC(=S)N(NS(=O)(=O)c3ccc(C)cc3)C2=O)cc1 | -38.5 | 8.2 µM [falling, partial curve] | 16.4 µM [falling, partial curve]
COC(=O)c1ccc(NC(=O)CN(c2ccc(OC)cc2)S(C)(=O)=O)cc1 | 4.65 | 29.1 µM [rising, single point] | –
CC(C)C(=O)c1ccc(O)c(O)c1 | -14.5 | 0.517 µM [falling, full curve, poor fit] | –
CC1CCCC(C)N1C(=O)COC(=O)CCc1nc2ccccc2c(=O)[nH]1 (stereo unspecified) | -66.7 | – | 10.3 µM [falling, partial curve]
COc1cc(Cl)ccc1NC(=O)COc1ccccc1C(=O)NN | – | 6.51 µM [rising, single point] | 5.8 µM [rising, single point]
CC(=O)NC(CC(=O)N1CCN(C(C)=O)CC1)c1ccccc1 (stereo unspecified) | 10.4 | 8.2 µM [rising, partial curve] | –
COCCOC(=O)C1=C(C)NC2=C(C(=O)CC(C)(C)C2)C1c1cc2c(cc1Br)OCO2 (stereo unspecified) | 31.6 | – | 6.51 µM [rising, single point]
Cc1ccc(CNC(=O)c2cccc3c2C(=O)c2ccc(N4CCC(C)CC4)cc2S3(=O)=O)cc1 | -15 | 2.31 µM [falling, single point] | –
CNc1nnc(-c2ccc(C)cc2)c2ccccc12 | – | 6.51 µM [rising, single point] | –
Cc1ccc(NC(=O)C/C(N)=N/OC(=O)Nc2ccc(C)c(Cl)c2)cc1 | -5.32 | 1.46 µM [falling, partial curve] | –
Cc1nc2cc3ccccc3cc2c(=O)[nH]1 | 0.7 | – | 0.651 µM [falling, full curve, poor fit]
O=C(N/C(=C/c1ccco1)C(=O)N1CCOCC1)c1cccs1 | -41 | 10.3 µM [falling, partial curve, poor fit] | 29.1 µM [falling, single point]
Cc1[nH]c2ccccc2c1/C=N/NC(=O)c1cccc([N+](=O)[O-])c1 | 22.5 | 6.51 µM [rising, partial curve, poor fit] | 4.11 µM [rising, single point]
CCCOc1c(Cl)cc(/C=N/O)cc1OCC | 10.4 | – | –
CCCCC(=O)NCc1ccc(Cl)cc1 | 46 | 29.1 µM [rising, single point] | –
COc1cc(/C=C/CO)cc(OC)c1OC/C=C(\C)CCC=C(C)C | -40.7 | – | 16.4 µM [falling, single point]
CS(=O)(=O)N(CC(=O)N1CCCCCC1)c1cccc(Cl)c1Cl | -24.1 | – | –
O=C1COc2ccc(C(=O)COC(=O)c3c(F)cccc3Cl)cc2N1 | -31.3 | 10.3 µM [falling, partial curve, poor fit] | 2.59 µM [falling, full curve]
Cc1noc(C)c1C(=O)Nc1cccc(S(=O)(=O)N2CCOCC2)c1 | -2.39 | – | –
O=C(Nc1ccc(N2CCN(C(=O)c3ccc(Cl)cc3)CC2)cc1)c1ccc([N+](=O)[O-])o1 | -25.8 | – | –

SMILES | cell number change [%] | AC50 [1] | AC50 [2]
CCCCCCCNC(=O)C1(CC2CC(c3cccc(Br)c3)=NO2)CCN(C(=O)C2CCCC2)CC1 (stereo unspecified) | -23 | 6.51 µM [falling, single point] | –
Cc1cc(=O)[nH]c(N/N=C/c2ccc(F)cc2)n1 | -5.67 | 0.00461 µM [falling, full curve, poor fit] | –
COc1nc(N2CCOCC2)nc(C)c1[N+](=O)[O-] | 55.4 | 29.1 µM [rising, single point] | 18.4 µM [rising, single point]
CCc1nccn1S(=O)(=O)c1ccc(Br)cc1Br | 28.5 | 23.1 µM [falling, single point] | 3.26 µM [rising, full curve, poor fit]
CCn1c(CNC(=O)c2ccco2)nnc1SCC(=O)c1ccc(F)cc1 | -8.57 | 29.1 µM [rising, partial curve] | 5.17 µM [falling, partial curve, poor fit]
CC1CCCC(C)N1C(=O)CSc1nccc(=O)[nH]1 (stereo unspecified) | 16.1 | – | –
O=C(NCc1ccccc1)C1=C[C@@H](c2ccc(C(F)(F)F)cc2)C[C@@H](OCc2ccc(CO)cc2)O1 | -14 | 0.651 µM [rising, full curve, poor fit] | –
CC(C)N(Cc1nc(-c2ccccc2)no1)C(=O)C(Cl)(Cl)Cl | 103 | – | 23.1 µM [rising, partial curve]
O=C(c1ccc(Cl)c(NC2=NC3CS(=O)(=O)CC3S2)c1)N1CCN(c2ccc(F)cc2)CC1 (stereo unspecified) | – | 29.1 µM [rising, single point] | –
COc1ccc(NS(=O)(=O)c2cccc(C(=O)NNC(=O)CNC(=O)c3ccccc3F)c2)cc1 | -8.23 | 7.31 µM [rising, partial curve] | –
CN1CCC(NC(=O)c2cc(-c3cccc(Br)c3)nc3ccccc23)CC1 | -7.12 | – | –
Cc1ccc(CC(=O)OC(C)C(=O)NC2CCCCC2C)cc1C (stereo unspecified) | 3.71 | 0.00461 µM [falling, full curve, poor fit] | –
C=CCc1cc(OC)ccc1OCCON1C(=O)CCC1=O | 4.65 | 13 µM [rising, single point] | –
CCc1nnc(NC(=O)CSc2nnc(-c3ccccc3O)n2CC)s1 | 56.1 | 0.651 µM [rising, single point] | 14.6 µM [rising, single point]
CCn1ncc(C2=NOC(C(=O)Nc3ccc4c(c3)OCO4)C2)c1C (stereo unspecified) | 11.2 | 1.03 µM [rising, single point] | 0.731 µM [rising, single point]
CC(C)c1ccc(-c2nc(N3CCOCC3)[nH]c(=O)c2C#N)cc1 | -14.8 | – | –
COc1cccc2c3c(c(=O)[nH]c12)CCC(C)(C)O3 | 37.4 | 2.59 µM [rising, full curve] | 1.03 µM [rising, full curve]
O=C(Cc1ccccc1)NNC1CC(=O)N(c2ccc(Br)cc2)C1=O (stereo unspecified) | -30.1 | 4.61 µM [falling, full curve] | –
COc1ccc(-n2nnnc2SCC(=O)c2ccc(OC)c(OC)c2)cc1 | -0.388 | 2.59 µM [rising, partial curve] | –
